The list shows only some results of the screen, not a fair sample: it is rich in T/C values a quarter to a half above the control, in often repeated tests (any T/C) and in doses without a T/C. Further doses and runs are listed elsewhere. T/C gives the treated animals as a percentage of the vehicle group. Some entries give survivors of the animals treated and no T/C: the source files T/C as zero there, which appears to mark a toxic dose or a test without result, not a measured value. Some survivor counts are full or nearly so, which does not show that the dose was tolerated: survival well below the control is almost never listed, so the zero probably covers shortened survival too. Survivors were counted at the toxicity check, usually on the fifth day, unless a day is given; later deaths do not show. Schedules are NCI's codes, taken here to give the interval after Q, in days (D) or hours (H), and the number of doses after X. Some schedules carry Z or #; the key to these is not given. For survival time, the PubChem record calls one and a half times the control and up active, and a quarter to a half above the control has no call in these data; cut-offs in other NCI protocols can differ. Some entries hold several experiments; the results are listed from low to high. Some T/C values are followed by the survivors on the day toxicity was checked, most often the fifth; without a count, all were alive then.
Test system: BDF1 mice, P388 leukemia ip, median survival T/C
Experiment: NCI In Vivo Anticancer Drug Screen. Data for tumor model P388 Leukemia (intraperitoneal) in B6D2F1 (BDF1) mice
Conditions: T/C endpoint: median survival time, higher T/C = longer survival
How it was run: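 Mice carrying the transplantable tumour receive compound or vehicle. Survival is followed in each arm, and the treated measure is divided by the vehicle measure.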

[1] = dose: 100.0 mg/kg/injection, schedule: Q01DX009 (ip), vehicle: saline with Tween-80
[2] = dose: 200.0 mg/kg/injection, schedule: Q01DX009 (ip), vehicle: saline with Tween-80
[3] = dose: 50.0 mg/kg/injection, schedule: Q01DX009 (ip), vehicle: saline with Tween-80
[4] = dose: 25.0 mg/kg/injection, schedule: Q01DX009 (ip), vehicle: saline with Tween-80
[5] = dose: 200.0 mg/kg/injection, schedule: Q04DX003 (ip), vehicle: Klucel (hydroxypropylcellulose) (HPC)
[6] = dose: 400.0 mg/kg/injection, schedule: Q04DX003 (ip), vehicle: Klucel (hydroxypropylcellulose) (HPC)
[7] = dose: 200.0 mg/kg/injection, schedule: Q01DX009 (ip), vehicle: saline
[8] = dose: 400.0 mg/kg/injection, schedule: Q01DX009 (ip), vehicle: saline

Compound: CC(C)=CCC1=C(O)c2ccccc2C(=O)C1=O
- T/C (dose: 100.0 mg/kg/injection, schedule: Q01DX010 (ip), vehicle: water): 100, 109, 113, 118 % of control
- survivor count (dose: 125.0 mg/kg/injection, schedule: Q#A X020 (oral), vehicle: other): 6 of 6
- survivor count (dose: 200.0 mg/kg/injection, schedule: Q01DX010 (ip), vehicle: water): 3 of 6
- survivor count (dose: 200.0 mg/kg/injection, schedule: Q#A X018 (ip), vehicle: other): 1 of 6
- T/C (dose: 200.0 mg/kg/injection, schedule: Q#A X020 (ip), vehicle: other): 140 % of control
- survivor count (dose: 250.0 mg/kg/injection, schedule: Q#A X018 (ip), vehicle: other): 0 of 6
- survivor count (dose: 250.0 mg/kg/injection, schedule: Q#A X020 (oral), vehicle: other): 5 of 6
- survivor count (dose: 300.0 mg/kg/injection, schedule: Q#A X018 (ip), vehicle: other): 0 of 6
- survivor count (dose: 375.0 mg/kg/injection, schedule: Q#A X020 (oral), vehicle: other): 3 of 6
- survivor count (dose: 500.0 mg/kg/injection, schedule: Q#A X020 (oral), vehicle: other): 4 of 6
- survivor count (dose: 750.0 mg/kg/injection, schedule: Q#A X020 (oral), vehicle: other): 1 of 6

Compound: C=CC(C#N)(C=C)C=C
- survivor count [1]: 0 of 6
- survivor count [2]: 0 of 6

Compound: COc1ccc(C(CC(C)=O)c2c(O)c3ccccc3oc2=O)cc1OC (stereo not drawn)
- survivor count (dose: 25.0 mg/kg/injection, schedule: Q01DX009 (ip), vehicle: water): 6 of 6
- survivor count (dose: 50.0 mg/kg/injection, schedule: Q01DX009 (ip), vehicle: water): 5 of 6
- survivor count (dose: 100.0 mg/kg/injection, schedule: Q01DX009 (ip), vehicle: water): 3 of 6
- survivor count (dose: 200.0 mg/kg/injection, schedule: Q01DX009 (ip), vehicle: water): 3 of 6
- survivor count (dose: 400.0 mg/kg/injection, schedule: Q01DX009 (ip), vehicle: water): 2 of 6

Compound: C(=N\OCCc1ccccc1)/c1cccnc1
- T/C (dose: 400.0 mg/kg/injection, schedule: Q01DX009 (ip), vehicle: saline sonified): 140 % of control

Compound: CN1CCCC1c1cccnc1 (stereo not drawn)
- survivor count (dose: 12.5 mg/kg/injection, schedule: Q01DX009 (ip), vehicle: saline): 2 of 6

Compound: Cc1n[nH]c2ccc([N+](=O)[O-])cc2c1=O
- survivor count [3]: 6 of 6
- survivor count [1]: 6 of 6

Compound: CC(=O)N1c2ccccc2Sc2ccc3ccc(C(=O)CCl)cc3c21
- T/C (dose: 12.5 mg/kg/injection, schedule: Q01DX009 (ip), vehicle: saline with Tween-80): 137 % of control
- T/C [4]: 142 % of control
- T/C [3]: 144 % of control

Compound: Nc1nc(=S)c2[nH]c(N=Nc3ccc(S(N)(=O)=O)cc3)nc2[nH]1
- T/C (dose: 50.0 mg/kg/injection, schedule: Q04DX003 (ip), vehicle: Klucel (hydroxypropylcellulose) (HPC)): 145 % of control [5 of 6 alive]
- T/C (dose: 100.0 mg/kg/injection, schedule: Q04DX003 (ip), vehicle: Klucel (hydroxypropylcellulose) (HPC)): 137 % of control
- survivor count [5]: 3 of 6

Compound: CCCC(C1=CC(C)(C)c2ccccc2C1=O)c1ccc(Br)cc1 (stereo not drawn)
- T/C (dose: 100.0 mg/kg/injection, schedule: Q01DX009 (ip), vehicle: Klucel (hydroxypropylcellulose) (HPC)): 125 % of control
- T/C (dose: 400.0 mg/kg/injection, schedule: Q01DX009 (ip), vehicle: Klucel (hydroxypropylcellulose) (HPC)): 135 % of control

Compound: c1ccc([P+](CCCCCCCCCC[P+](c2ccccc2)(c2ccccc2)c2ccccc2)(c2ccccc2)c2ccccc2)cc1
- survivor count (dose: 10.0 mg/kg/injection, schedule: Q01DX010 (ip), vehicle: saline): 0 of 6
- survivor count (dose: 20.0 mg/kg/injection, schedule: Q01DX010 (ip), vehicle: saline): 0 of 6

Compound: CCN(CC)c1ccc2nc3ccc(N=Nc4c(O)ccc5ccccc45)cc3[n+](-c3ccccc3)c2c1
- survivor count (dose: 50.0 mg/kg/injection, schedule: Q01DX005 (ip), vehicle: saline with Tween-80): 0 of 5
- survivor count (dose: 100.0 mg/kg/injection, schedule: Q01DX005 (ip), vehicle: saline with Tween-80): 0 of 5
- survivor count (dose: 200.0 mg/kg/injection, schedule: Q01DX005 (ip), vehicle: saline with Tween-80): 0 of 5

Compound: C[C@]12CCC(=O)C=C1CC[C@@H]1[C@@H]2[C@@H](O)C[C@@]2(C)[C@H]1CC[C@]2(C)O
- survivor count [2]: 4 of 6
- survivor count (dose: 400.0 mg/kg/injection, schedule: Q01DX009 (ip), vehicle: saline with Tween-80): 1 of 6

Compound: CCCCCCCCCCNc1ccc(NCCCCCCCCCC)cc1
- survivor count (dose: 200.0 mg/kg/injection, schedule: Q01DX009 (ip), vehicle: Klucel (hydroxypropylcellulose) (HPC)): 5 of 6
- T/C [5]: 130 % of control
- T/C [6]: 145 % of control

Compound: Nc1nc(=O)n(CC(=O)c2ccco2)cc1F
- survivor count [7]: 3 of 6
- survivor count [8]: 0 of 6

Compound: CC1=CC2=C(C=O)C(=O)[C@](C)(O)[C@@H](O)C2=CO1
- T/C (dose: 50.0 mg/kg/injection, schedule: Q04DX003 (ip), vehicle: saline with Tween-80): 130 % of control
- T/C (dose: 66.0 mg/kg/injection, schedule: Q04DX003 (ip), vehicle: saline with Tween-80): 147 % of control
- T/C (dose: 100.0 mg/kg/injection, schedule: Q04DX003 (ip), vehicle: saline with Tween-80): 133 % of control
- survivor count (dose: 150.0 mg/kg/injection, schedule: Q04DX003 (ip), vehicle: Klucel (hydroxypropylcellulose) (HPC)): 3 of 6
- T/C (dose: 150.0 mg/kg/injection, schedule: Q04DX003 (ip), vehicle: saline with Tween-80): 133 % of control [5 of 6 alive]

Compound: O=C1CCC(=O)N1CO
- T/C (dose: 75.0 mg/kg/injection, schedule: Q04DX003 (ip), vehicle: saline): 127 % of control
- T/C (dose: 100.0 mg/kg/injection, schedule: Q04DX003 (ip), vehicle: saline): 127 % of control
- T/C (dose: 150.0 mg/kg/injection, schedule: Q04DX003 (ip), vehicle: saline): 140 % of control

Compound: COP1(=O)OCC2OC(n3cnc4c(N)ncnc43)C(O)C2O1 (stereo not drawn)
- survivor count [7]: 6 of 6
- survivor count [8]: 6 of 6

Compound: COc1cccc2c1C(=O)c1c(O)c3c(c(O)c1C2=O)C[C@@](O)(C(=O)CO)C[C@@H]3OC1CC(N(C)C)C(O)C(C)O1 (stereo partly drawn)
- survivor count (dose: 6.67 mg/kg/injection, schedule: Q04DX003 (ip), vehicle: water): 8 of 8

Compound: COc1cc2c(cc1OC)C1c3cc(OC)c(OC)cc3CC(=O)N1CC2 (stereo not drawn)
- survivor count (dose: 0.18 mg/kg/injection, schedule: Q01DX009 (ip), vehicle: saline): 6 of 6
- survivor count (dose: 6.25 mg/kg/injection, schedule: Q01DX009 (ip), vehicle: saline): 6 of 6
- survivor count (dose: 25.0 mg/kg/injection, schedule: Q01DX009 (ip), vehicle: saline): 5 of 6
- survivor count (dose: 50.0 mg/kg/injection, schedule: Q01DX009 (ip), vehicle: saline): 5 of 6
- survivor count [7]: 6 of 6
- survivor count [8]: 5 of 6

Compound: CSc1nccc(=O)n1-c1cccc(C(F)(F)F)c1
- survivor count [6]: 3 of 6

Compound: Oc1cccc(O)c1
- survivor count (dose: 200.0 mg/kg/injection, schedule: Q01DX010 (ip), vehicle: saline): 5 of 6
- survivor count (dose: 400.0 mg/kg/injection, schedule: Q01DX010 (ip), vehicle: saline): 0 of 6

Compound: CNC(=O)NC1C(O)COC(OC)C1O (stereo not drawn)
- T/C (dose: 75.0 mg/kg/injection, schedule: Q01DX001 (ip), vehicle: saline): 145 % of control

Compound: O=c1ccccc(Br)c1O
- T/C (dose: 50.0 mg/kg/injection, schedule: Q01DX001 (ip), vehicle: Klucel (hydroxypropylcellulose) (HPC)): 131 % of control

Compound: Cc1ccc(C(=O)N(N)C2CCCCC2)cc1
- survivor count [4]: 6 of 6
- survivor count [1]: 6 of 6

Compound: CC1(C)SC2C(NC(=O)Cc3ccccc3)C(=O)N2C1C(=O)O (stereo not drawn)
- survivor count [7]: 3 of 3

Compound: C=C1C(=O)OC2C=C(C)CC3C=C(CCC=C(C)CCC12)C(=O)O3 (stereo not drawn)
- survivor count (dose: 20.0 mg/kg/injection, schedule: Q01DX009 (ip), vehicle: saline): 4 of 4
